Experimental findings from publication doi:10.1101/2024.01.06.574455 are described below.

This assay concerns the target YlxR/Ssr1238-3×FLAG (Synechocystis sp. PCC 6803). The assay is described as follows: affinity purification with mass spectrometry.

Results are given in words; binding and its absence hold for the method and conditions named. In cells and extracts the contact can be indirect. These calls come from enrichment with a bait or labelling near it, and not all partners need be listed.

B1: queuine tRNA-ribosyltransferase Slr0713 (enzyme, UniProt Q55983 1-374)
chain: MPLPSVNFTYQCQARCSHSQARAGIFQTPHGPVETPRFMPVGTLATVKGITPAQLADTQAQMVLANTYHLHLQPGEKIIAAAGGVHKFMGWSGPMLTDSGGFQVFSLSQLRTIGEQGVLFRSPRDGRLIDMTPENSIRIQNALGADVIMAFDECPPGQGDRLMVEQATARTYRWLERCIEAHQRPGDQALFGIVQGGTYLDLRSQAAEQLIALDLPGYAIGGVSVGEAPALIDKVVQHTAPLLPAHKPRYLMGVGTYREMARAIFAGIDLFDCVIPTRFGRHGTALVQGERWNLKNATFREDHRPLDETCPCYTCQTFSRAYLNHLIRSREMLGYILLSLHNITELIRFTQSIRQAILNDTFTQDFAHWLTPPE
On to B1, for which the binding result is given as “binds”.

B2: cyanophycin synthetase (CphA) (enzyme, UniProt P73833 1-873)
chain: MKILKTLTLRGPNYWSIRRKKLIVMRLDLEDLAERPSNSIPGFYEGLIRVLPSLVEHFCSPGHRGGFLARVREGTYMGHIVEHVALELQELVGMTAGFGRTRETSTPGIYNVVYEYVDEQAGRYAGRAAVRLCRSLVDTGDYSLTELEKDLEDLRDLGANSALGPSTETIVTEADARKIPWMLLSARAMVQLGYGVHQQRIQATLSSHSGILGVELACDKEGTKTILQDAGIPVPRGTTIQYFDDLEEAINDVGGYPVVIKPLDGNHGRGITINVRHWEEAIAAYDLAAEESKSRSIIVERYYEGSDHRVLVVNGKLVAVAERIPAHVTGDGTSTITELIDKTNQDPNRGDGHANILTKIVVNKTAIDVMERQGYNLDSVLPKDEVVYLRATANLSTGGIAIDRTDDIHPENIWLMERVAKVIGLDIAGIDVVTSDISKPLRETNGVIVEVNAAPGFRMHVAPSQGLPRNVAAPVLDMLFPSGTPSRIPILAVTGTNGKTTTTRLLAHIYRQTGKTVGYTSTDAIYINEYCVEKGDNTGPQSAAVILRDPTVEVAVLETARGGILRAGLAFDTCDVGVVLNVAADHLGLGDIDTIEQMAKVKSVIAEVVDPSGYAVLNADDPLVAAMADKVKAKVAYFSMNPDNPVIQNHIRRNGIAAVYESGYVSILEGSWTLRVEEATLIPMTMGGMAPFMIANALAACLAAFVNGLDVEVIRQGVRTFTTSAEQTPGRMNLFNLGRYHALVDYAHNPAGYRAVGDFVKNWHGQRFGVVGGPGDRRDSDLIELGQIAAQVFDRIIVKEDDDKRGRSGGETADLIVKGILQENPGAAYEVILDETVALNKALDQVEEKGLVVVFPESVSKAIELIKARKPIG
In the case of B2, the binding entry is “binds”.

B3: putative 8-amino-7-oxononanoate synthase BioF (enzyme, UniProt P74770 1-393)
chain: MATGSTAYTWLDDALETIQRAHWHRHPQIITQGPGPEIKLEGQRLVNFASNDYLGLASHPHLKTAAIKAIAEWGTGSTGSRLLSGHRQLHQDLEQAIARWKGTEAALVFSSGYLANLGTITALVGKRDLILADEYNHSSLKRGAQLSGAKVINYDHGCPEVLTDLLMKHRDNHRRCLILSDGVFSMDGDLCPLPQLVAIAEEFQSMLLVDDAHGTGTMGKMGTGCREHFQLPVGDWIQVGTLSKALGSLGGYVAGSASLIDFLRNRAATWIYTTGLSPADTAAALAAIQLIQREPERIVQLQLNVDYLATGLESLTKLNFRRSPINSPILWVGAANPAMALEMAKHLREQGIFAPAIRPPTVPHSRIRFSVMATHSPGHIDQLLEVLDHYYPN
Take B3: the binding result was “binds”.

B4: RNase E (Rne) (enzyme, UniProt P72656 1-674)
chain: MPKQIVIAEKHQVAAVFWKDQIQELVVSTGSQQVGDIYLGLVDNILPSIDAAFINIGDTEKNGFIHVSDLGPVRLRRTAGSISELLSPQQRVLVQVMKEPTGNKGPRLTGNISMPGRYMVLMPYGRGVNLSRRINREEERSRLRALAVLIKPPGMGLLVRTEAEDVPEDAIIEDLENLQKQWELVQQQAMTRSAPMLLDRDDDFIKRVLRDMYSSEVNRIVVDTPAGMKRIKQQLMNWDQGRLPEGVLIDCHRESLSILEYFRVNATIREALKPRVDLPSGGYIIIEPTEALTVIDVNSGSFTHSANSRETVLWTNYEAATEIARQLKLRNIGGVIIIDFIDMDSHKDQLQLLEHFNRCLETDKARPQIAQLTELGLVELTRKRQGQNLYELFGQPCPECGGLGHLVELPGEKGFVSLSPTAVNSSIPPRLVEKPILSPPVAKVNDLPKKEEAKISSPLDLLFHPNYQEQGDRDSNRRRRRRRGSEFSEKENIKSVGISRSKGPSPSPTKEKVTGTAPPRRERPSRRVEKTLVPVDVAMTTLEQDIYARMGISPLIKTEYADQDPRSFMVSVVTAGAALEGNTNGSGSLVNAVITTVDNGDNGDNVPSDGLTIVSEVTAPTPVIEQPREETVEPEQVVLPQLDDETPAAPVAEESAPIETKKRPGRRRRRSSAE
For B4, the binding result was “binds”.

B5: tRNA (guanine-N(7)-)-methyltransferase TrmB (Sll1300) (enzyme, UniProt P73161 1-211)
chain: MARVRIRQHVNPLSEKYRQVLACPDWATVYDDVQRPLHLDIGCARGRFPLKMAQQHPDWNFLGVEIRQPLVLEANETGDRLGLKNLHYLFGNINVEPEKFFSAFPPTLQRVSIQFPDPWFKQRHNKRRVAQPELVTAIANALPPGGEVLLQSDVEPVAQDMRDRFAENDNFVFTHDTPWLAENPLGVPTEREIACFNLQRPVYRCLLQRTP
Take B5: the binding result is listed as “binds”.

B6: putative RNA methyltransferase Sll1967 (enzyme, UniProt P73374 1-463)
chain: MTQSNNFATSPLWQQGSVVELTITGLNHQGEGIGRFNERVVFVPDTAPGDRLEVRLVKVKRNYALAQLLKILEPSVQRTRPSCIVADKCGGCQWQHLDYQFQVESKQQQIIDALERIGGFTTLPLEPLLQSPASLGYRNKATYPLSRSKTGQVQAGYYRKGSHRLVNINQCPVQDDRLNLLLTEVKKDIENRGWSIYDEEKKQGKLRHLSLRIGQRTGEMLLTLISAHKGLPDLEEQAGEWLERYPDLGGICLNIQPEPNNRIFGDETVVIAGRGICREKFADLSFSLGANTFFQVNSGAAELLLTRLQQALNLQGAELLVDAYAGVGTFTLPLARQVRQAIAIEVNQDSVHQGQRNAEINQIANVDFLAGTVETVLPTLSEIPDVLLLDPPRKGCAPEVLREIIRQRPEKIAYISCQPPTLARDLKFLCAEGFYGITWVQGCDFFPQTAHVECAVILKAVNG
For B6, the binding entry is on record as “binds”.

B7: urease subunit UreA (protein, UniProt P73796 1-100)
chain: MQLSPQEKDKLLIFTASLVAERRKARGLKLNYPEAVAYISAAILEGARDGRTVAELMNYGATLLSRDEVMEGVPEMLPEVQVEATFPDGTKLVTVHEPIR
For the molecule B7, the binding result is recorded as “binds”.

B8: urease subunit UreB (protein, UniProt P74386 1-105)
chain: MATMIPGEIITPEGDIELNVGRSTCTINVANTGDRPIQVGSHYHFYEVNAALQFDRDLAKGMRLDIPAGTAVRFEPGDEKNVNLVAYAGSREIYGFNGLVNGPLE
Consider B8, for which the binding entry was “binds”.

B9: enolase (enzyme, UniProt P77972 1-432)
chain: MLSKVPATIEEIAAREILDSRGRPTIEAEVRLESGAHGIAQVPSGASTGSFEAHELRDGDPKRYDGKGVEKAVRNVTEKIAPVVEGLDAFDQMAVDQAMIDRDGTDNKKELGANAILGVSLATAKAAAAELAIPLYRYLGGPLANVLPVPMMNVINGGAHADNNVDFQEFMIMPVGAETFKEALRWGAEVFAVLGKVLKERKLLSGGVGDEGGYAPNLTSNQQALDILIEAIEQAGYKPGSQIALAMDIAASEFFKNGQYEYDGGSHSPQEFIDYQAKLVSQYPIVSIEDGLHEDDWESWKGLTTSLGTKTQLVGDDLMVTNPVRLQKSIDLGVANAILIKLNQIGTLSETLETISLATRHSYRSVISHRSGETEDTTIADLAVATRVGQIKTGSLCRSERVAKYNRLLRIEDELGDRAVYAPKIGLGPKHS
With B9, the binding result was “binds”.
